Source: the supplement of paper PMC9015667
Structures can show the parent of a compound that is named as a salt. This is one part of the list. Many values rest on one well or one pass, so single values are uncertain.

Tests used:
Assay in all cases: reduction in cell viability relative to untreated/vehicle; higher = more growth inhibition
Settings in all cases: 200 nM; 72 h
M229P = test system: M229P (parental melanoma line)
M229R = test system: M229R (matched melanoma line resistant to BRAF inhibitors)
M238P = test system: M238P (parental melanoma line)
M238R = test system: M238R (matched melanoma line resistant to BRAF inhibitors)
M249P = test system: M249P (parental melanoma line)
M249R = test system: M249R (matched melanoma line resistant to BRAF inhibitors)
UACC62P = test system: UACC62P (parental melanoma line)
UACC62R = test system: UACC62R (matched melanoma line resistant to BRAF inhibitors)

Measured: reduction in cell viability

CCc1c(O)cc(O)c(C(=O)c2ccc(OCCN3CCOCC3)c(OC)c2)c1CC(=O)N(CCOC)CCOC
13.3%: M229R
4.51%: M238P
39.6%: UACC62P
< 0%: all other assays above

Oc1c(Cl)cc(Cl)c2cccnc12 [Chloroxine]
< 0%: all assays above

Clc1cccc(-c2nnnn2Cc2cccnc2)c1Cl
6.84%: M249R
0.98%: UACC62P
< 0%: all other assays above

CCCCNc1cc(C(=O)O)cc(S(N)(=O)=O)c1Oc1ccccc1 [Bumetanide]
3.06%: M229R
< 0%: all other assays above

CC1(C)CNc2cc(NC(=O)c3cccnc3NCc3ccncc3)ccc21 [Motesanib]
0.15%: UACC62P
< 0%: all other assays above

O=C(CCc1ccc(O)cc1)c1c(O)cc(O)cc1O [Phloretin]
7.56%: M249R
4.04%: M249P
16.3%: UACC62P
< 0%: all other assays above

Cc1cnc(-c2cnc(NCCNc3ccc(C#N)cn3)nc2-c2ccc(Cl)cc2Cl)[nH]1
< 0%: all assays above

C[C@@H]1CCO[C@H]2Cn3cc(C(=O)NCc4ccc(F)cc4F)c(=O)c(O)c3C(=O)N12 [Dolutegravir]
< 0%: all assays above

Cc1cc(O)c2c(c1)C(=O)c1cc(O)cc(O)c1C2=O [Emodin]
< 0%: all assays above

Cn1cc(C2=C(c3c4n(c5ccccc35)CCC(CN)C4)C(=O)NC2=O)c2ccccc21 (stereo unspecified)
< 0%: all assays above

NC(=O)c1ncn([C@@H]2O[C@H](CO)[C@@H](O)[C@H]2O)c1O [Mizoribine]
2.62%: M249R
< 0%: all other assays above

NC1(c2ccc(-c3nc4ccn5c(=O)[nH]nc5c4cc3-c3ccccc3)cc2)CCC1
17.7%: UACC62P
1.78%: M249R
0.63%: M238P
19.6%: M249P
< 0%: all other assays above

COc1cc2ncn(-c3cc(OCc4ccccc4S(C)(=O)=O)c(C#N)s3)c2cc1OC [IKK-3 Inhibitor IX]
0.52%: M229R
3.63%: M249P
1.66%: M249R
< 0%: all other assays above

CCN1C[C@H](C)n2c(c(O)c3c(=O)n(Cc4ccc(F)c(Cl)c4)nc(C(=O)NC)c32)C1=O
< 0%: all assays above

Cc1onc(-c2ccccc2Cl)c1C(=O)N[C@@H]1C(=O)N2[C@@H]1SC(C)(C)[C@@H]2C(=O)O [Sodium cloxacillin]
5.91%: UACC62P
< 0%: all other assays above

COc1ccc(-c2nc(N3CCOCC3)c3sc(CN(C)c4ncc(C(=O)NO)cn4)cc3n2)cn1
< 0%: all assays above

CN1C2CCCC1CC(NC(=O)c1nn(C)c3ccccc13)C2 (stereo unspecified) [Granisetron hydrochloride]
4.37%: UACC62P
< 0%: all other assays above

C#Cc1cccc(Nc2ncnc3cc(OCCOC)c(OCCO)cc23)c1
< 0%: all assays above

O=C1N(c2ccccc2)c2ccccc2C1(Cc1ccncc1)Cc1ccncc1 [Linopirdine]
0.07%: UACC62P
< 0%: all other assays above

COc1ccc(-c2ccc3cc(C(=O)O)ccc3c2)cc1C12CC3CC(CC(C3)C1)C2 [Adapalene]
< 0%: all assays above

CCCCOCCOc1nc(-c2ccc(C(=O)O)c(F)c2)sc1C
< 0%: all assays above

Cc1c(NC(=O)c2ccc(C(C)(C)C)cc2)cccc1-c1cn(C)c(=O)c(Nc2ccc(C(=O)N3CCOCC3)cc2)n1
< 0%: all assays above

COc1ccc2c(c1)c(CC(=O)O)c(C)n2C(=O)c1ccc(Cl)cc1 [Indomethacin]
2%: UACC62P
< 0%: all other assays above

CN1CCN(CCCN2c3ccccc3Sc3ccc(Cl)cc32)CC1 [Prochlorperazine dimaleate]
< 0%: all assays above

COc1ccc(S(=O)(=O)N(C(C)=O)c2ccccc2/C=C/c2cc[n+]([O-])cc2)cc1
44.7%: M249R
45.7%: UACC62P
88.3%: UACC62R
32.6%: M229R
71.6%: M238R
32%: M249P
21.1%: M229P
55.8%: M238P

C=CC[C@@H]1/C=C(\C)C[C@H](C)C[C@H](OC)[C@H]2O[C@@](O)(C(=O)C(=O)N3CCCC[C@H]3C(=O)O[C@H](/C(C)=C/[C@@H]3CC[C@@H](O)[C@H](OC)C3)[C@H](C)[C@@H](O)CC1=O)[C@H](C)C[C@@H]2OC
0.84%: M238R
< 0%: all other assays above

CN(C)CC/C=C1/c2ccccc2COc2ccc(CC(=O)O)cc21 [Olopatadine hydrochloride]
8.25%: M229P
< 0%: all other assays above

CC(C)(Cc1ccc2ccccc2c1)NC[C@@H](O)COc1cccc(Cl)c1C#N
< 0%: all assays above

CCn1c(=O)c2c(nc(/C=C/c3ccc(OC)c(OC)c3)n2C)n(CC)c1=O [Istradefylline]
0.68%: M249R
0.74%: UACC62P
< 0%: all other assays above

CN(C)CC[C@H](CSc1ccccc1)Nc1ccc(S(=O)(=O)NC(=O)c2ccc(N3CCN(Cc4ccccc4-c4ccc(Cl)cc4)CC3)cc2)cc1[N+](=O)[O-]
6.08%: M249R
7.08%: UACC62P
< 0%: all other assays above

c1ccc2c(CCNc3ccc(Nc4ccncc4)cc3)c[nH]c2c1
5.07%: UACC62P
< 0%: all other assays above

Cc1cc(=O)oc2cc(O)ccc12 [4-methylumbelliferone]
< 0%: all assays above

Cc1cc(C(C)(C)C)c(O)c(C)c1CC1=NCCN1 [Oxymetazoline]
6.98%: M238P
2.25%: M249P
33.7%: M229R
6.11%: M249R
< 0%: all other assays above

OC[C@H]1O[C@@H](O[C@@H]2[C@@H](CO)OC(O)(CO)[C@H]2O)[C@H](O)[C@@H](O)[C@H]1O (mixture of isomers) [Lactulose]
< 0%: all assays above

For convenience, 8 of the compounds above:
Oc1c(Cl)cc(Cl)c2cccnc12 [Chloroxine]
< 0%: all assays above

Clc1cccc(-c2nnnn2Cc2cccnc2)c1Cl
6.84%: M249R
0.98%: UACC62P
< 0%: all other assays above

CCCCNc1cc(C(=O)O)cc(S(N)(=O)=O)c1Oc1ccccc1 [Bumetanide]
3.06%: M229R
< 0%: all other assays above

CC1(C)CNc2cc(NC(=O)c3cccnc3NCc3ccncc3)ccc21 [Motesanib]
0.15%: UACC62P
< 0%: all other assays above

O=C(CCc1ccc(O)cc1)c1c(O)cc(O)cc1O [Phloretin]
7.56%: M249R
4.04%: M249P
16.3%: UACC62P
< 0%: all other assays above

Cc1cnc(-c2cnc(NCCNc3ccc(C#N)cn3)nc2-c2ccc(Cl)cc2Cl)[nH]1
< 0%: all assays above

C[C@@H]1CCO[C@H]2Cn3cc(C(=O)NCc4ccc(F)cc4F)c(=O)c(O)c3C(=O)N12 [Dolutegravir]
< 0%: all assays above

Cc1cc(O)c2c(c1)C(=O)c1cc(O)cc(O)c1C2=O [Emodin]
< 0%: all assays above

(more compounds)

CN(CCOc1ccc(CC2SC(=O)NC2=O)cc1)c1ccccn1 (stereo unspecified) [Rosiglitazone]
< 0%: all assays above

CCOC(=O)CN[C@@H](C(=O)N1CC[C@H]1C(=O)NCc1ccc(/C(N)=N\O)cc1)C1CCCCC1 [Ximelagatran]
4.92%: UACC62P
4.88%: M249R
< 0%: all other assays above

NC(=O)c1cnccn1 [Pyrazinamide]
0.63%: M229R
< 0%: all other assays above

COc1ccc2nc3cc(Cl)ccc3c(Nc3cc(CN4CCCC4)c(O)c(CN4CCCC4)c3)c2n1 [Pyronaridine]
9.88%: UACC62P
< 0%: all other assays above

CC(=O)[C@H]1CC[C@H]2[C@@H]3CCC4=CC(=O)CC[C@]4(C)[C@H]3CC[C@]12C [Progesterone]
< 0%: all assays above

CCCc1nc2c(C)cc(-c3nc4ccccc4n3C)cc2n1Cc1ccc(-c2ccccc2C(=O)O)cc1 [Telmisartan]
26.3%: UACC62P
14.4%: M249P
< 0%: all other assays above

CO[C@@H]1[C@H](N(C)C(=O)c2ccccc2)C[C@H]2O[C@]1(C)n1c3ccccc3c3c4c(c5c6ccccc6n2c5c31)C(=O)NC4=O [Stauprimide]
1.89%: UACC62P
16.8%: M238R
11.5%: M238P
< 0%: all other assays above

CS(=O)(=O)c1ccc(C2=C(c3ccccc3)C(=O)OC2)cc1 [Rofecoxib]
1.48%: M249R
< 0%: all other assays above
